This experiment addresses macaque podocalyxin (Macaque Kidney) (macaque (species not further named)). The experiment in a line: IHC, formalin fixed normal macaque kidney.

No constants are given. Whether binding was seen depends on the method and setting.

B1: Podo447 antibody, recombinant rabbit/human IgG1 chimera (antibody, V domains shown)
VH: QSLEESGGRLVTPGTPLTLTCTASGFSLSGYQMNWVRQAPGKGLEWIGYIWSDGGTDYASWAKGRFTISKTSSTTVDLKMTSLTTEDTATYFCAREGYWLGAFDPWGPGTLVTVSS
VL: AAVLTQTPSPVSAAVGATVSVSCQSSQSVHHKNDLAWFQQKPGQPPKLLIYYTSTLASGVPSRFKGSGSGTQFTLTISDLECDDAATYYCAGVYEGSSDNRAFGGGTEVVVKR
notes: also called anti-Podo
On to B1, for which the binding entry is recorded as “no binding (tested: 1:25 dilution)”.

These data come from patent US11090383 (CENTRE FOR DRUG RESEARCH AND DEVELOPMENT, dated 2021).
